From patent publication US12564617B2, “Methods for modulating macrophage activity” (Riptide Bioscience, Inc., priority 2019, dated 2026)
Part of at least one peptide drawing is inferred or uncertain, most often the ends. Ends that are not written are not given here.

How the values were obtained:
CD206 [1] = biological target: T1, CD206 (Mus musculus, UniProt Q61830); assay: Cellular thermal shift assay (CETSA) in murine M2-polarized macrophages; format: cell-based; conditions: 100 μM
T1 construct: endogenous CD206 in human and murine macrophages; endogenous in cells; host or cells: M2-polarized BMDMs from C57B/L mice
T1 sequence (Q61830 20-1456): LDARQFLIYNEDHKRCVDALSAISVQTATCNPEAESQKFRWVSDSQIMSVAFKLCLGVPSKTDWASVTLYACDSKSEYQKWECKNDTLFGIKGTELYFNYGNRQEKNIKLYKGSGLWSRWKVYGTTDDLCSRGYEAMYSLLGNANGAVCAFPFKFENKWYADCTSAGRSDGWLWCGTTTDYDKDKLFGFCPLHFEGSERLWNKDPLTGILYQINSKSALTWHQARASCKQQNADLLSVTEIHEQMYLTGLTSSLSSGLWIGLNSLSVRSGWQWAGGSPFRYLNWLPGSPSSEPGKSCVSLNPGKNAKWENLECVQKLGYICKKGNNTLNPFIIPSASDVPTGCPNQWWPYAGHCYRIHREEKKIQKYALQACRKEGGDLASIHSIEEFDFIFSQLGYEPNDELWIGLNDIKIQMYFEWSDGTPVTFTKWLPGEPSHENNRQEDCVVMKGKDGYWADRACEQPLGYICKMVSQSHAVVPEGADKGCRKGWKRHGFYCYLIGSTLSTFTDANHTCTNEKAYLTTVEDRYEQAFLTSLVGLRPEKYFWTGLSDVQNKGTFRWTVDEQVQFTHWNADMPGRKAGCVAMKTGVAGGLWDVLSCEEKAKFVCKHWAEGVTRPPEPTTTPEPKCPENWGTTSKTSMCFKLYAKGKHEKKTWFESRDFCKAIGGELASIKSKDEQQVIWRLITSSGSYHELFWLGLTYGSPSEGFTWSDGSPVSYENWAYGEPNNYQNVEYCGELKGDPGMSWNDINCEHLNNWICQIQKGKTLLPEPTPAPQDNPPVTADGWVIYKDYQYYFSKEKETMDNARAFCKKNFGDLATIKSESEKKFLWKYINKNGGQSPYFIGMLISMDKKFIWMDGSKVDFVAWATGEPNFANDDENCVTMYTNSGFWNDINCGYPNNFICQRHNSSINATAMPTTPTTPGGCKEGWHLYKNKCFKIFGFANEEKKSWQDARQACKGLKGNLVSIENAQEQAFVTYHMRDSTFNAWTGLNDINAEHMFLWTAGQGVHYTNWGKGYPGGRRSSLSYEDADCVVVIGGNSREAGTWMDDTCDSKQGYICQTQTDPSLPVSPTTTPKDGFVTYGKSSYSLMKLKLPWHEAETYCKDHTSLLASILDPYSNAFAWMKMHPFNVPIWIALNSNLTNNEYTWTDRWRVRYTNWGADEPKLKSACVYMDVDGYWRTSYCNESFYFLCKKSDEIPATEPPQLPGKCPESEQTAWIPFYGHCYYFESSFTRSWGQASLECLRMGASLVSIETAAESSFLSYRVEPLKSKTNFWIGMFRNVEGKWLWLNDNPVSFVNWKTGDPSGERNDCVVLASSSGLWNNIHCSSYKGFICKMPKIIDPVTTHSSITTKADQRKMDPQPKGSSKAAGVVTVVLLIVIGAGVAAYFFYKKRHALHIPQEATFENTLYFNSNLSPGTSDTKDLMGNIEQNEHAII

CD206 [2] = biological target: T2, CD206 (Homo sapiens, UniProt P22897); assay: Cellular thermal shift assay (CETSA) in human M2-polarized macrophages; format: cell-based; conditions: 100 μM
T2 construct: endogenous CD206 in human and murine macrophages; endogenous in cells; host or cells: human M2-polarized macrophages derived from PBMCs of healthy donors
T2 sequence (P22897 19-1456): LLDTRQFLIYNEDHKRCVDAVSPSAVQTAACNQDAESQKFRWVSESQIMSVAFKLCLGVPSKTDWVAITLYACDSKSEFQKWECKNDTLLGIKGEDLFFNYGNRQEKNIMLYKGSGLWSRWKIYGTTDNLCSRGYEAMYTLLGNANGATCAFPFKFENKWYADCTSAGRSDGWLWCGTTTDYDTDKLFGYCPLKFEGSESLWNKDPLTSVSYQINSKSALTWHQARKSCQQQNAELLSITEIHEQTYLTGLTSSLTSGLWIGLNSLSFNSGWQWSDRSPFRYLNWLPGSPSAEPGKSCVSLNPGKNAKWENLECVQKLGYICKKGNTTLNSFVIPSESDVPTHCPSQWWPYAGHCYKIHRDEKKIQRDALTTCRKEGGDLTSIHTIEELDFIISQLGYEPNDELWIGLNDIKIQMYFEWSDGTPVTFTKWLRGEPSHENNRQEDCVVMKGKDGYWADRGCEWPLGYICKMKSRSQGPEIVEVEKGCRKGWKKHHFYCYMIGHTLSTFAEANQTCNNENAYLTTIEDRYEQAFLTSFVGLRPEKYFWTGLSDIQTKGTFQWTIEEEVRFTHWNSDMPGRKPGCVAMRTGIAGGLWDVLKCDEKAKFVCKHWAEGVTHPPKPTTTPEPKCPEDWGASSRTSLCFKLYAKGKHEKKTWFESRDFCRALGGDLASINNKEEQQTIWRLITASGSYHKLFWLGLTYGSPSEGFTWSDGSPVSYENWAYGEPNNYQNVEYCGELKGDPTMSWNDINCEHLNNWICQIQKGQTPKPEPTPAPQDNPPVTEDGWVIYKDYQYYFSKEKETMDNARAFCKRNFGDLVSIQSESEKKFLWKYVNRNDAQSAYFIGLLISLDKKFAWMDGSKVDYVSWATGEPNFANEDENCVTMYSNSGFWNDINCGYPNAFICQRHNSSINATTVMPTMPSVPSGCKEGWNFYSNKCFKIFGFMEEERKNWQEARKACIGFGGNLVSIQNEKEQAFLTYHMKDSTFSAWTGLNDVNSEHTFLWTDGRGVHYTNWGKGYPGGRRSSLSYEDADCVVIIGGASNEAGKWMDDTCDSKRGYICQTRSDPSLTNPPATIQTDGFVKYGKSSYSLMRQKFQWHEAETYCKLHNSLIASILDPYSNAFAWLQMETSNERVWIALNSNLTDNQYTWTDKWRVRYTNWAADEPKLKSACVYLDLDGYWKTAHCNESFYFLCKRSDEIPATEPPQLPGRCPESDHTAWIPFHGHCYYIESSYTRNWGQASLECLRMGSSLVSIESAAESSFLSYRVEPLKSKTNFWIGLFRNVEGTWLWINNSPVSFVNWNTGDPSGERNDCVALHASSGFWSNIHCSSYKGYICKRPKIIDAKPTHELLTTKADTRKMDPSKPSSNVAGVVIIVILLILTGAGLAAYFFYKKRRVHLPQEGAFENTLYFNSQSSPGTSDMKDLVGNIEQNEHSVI

[3] = tested on: murine M1 and M2 macrophages; assay: Live/Dead cell viability assay, murine macrophages (BMDMs); format: cell-based; conditions: 48 hours exposure
[4] = tested on: human M1 and M2 macrophages; assay: Live/Dead cell viability assay, human macrophages; format: cell-based; conditions: 48 hours exposure
human CD206 = biological target: T3, human CD206 (Homo sapiens, UniProt P22897); assay: Microscale thermophoresis (MST) binding to recombinant human CD206
T3 construct: purchased R&D Systems 2534-MR/CF
T3 sequence (P22897 19-1383 limits assumed): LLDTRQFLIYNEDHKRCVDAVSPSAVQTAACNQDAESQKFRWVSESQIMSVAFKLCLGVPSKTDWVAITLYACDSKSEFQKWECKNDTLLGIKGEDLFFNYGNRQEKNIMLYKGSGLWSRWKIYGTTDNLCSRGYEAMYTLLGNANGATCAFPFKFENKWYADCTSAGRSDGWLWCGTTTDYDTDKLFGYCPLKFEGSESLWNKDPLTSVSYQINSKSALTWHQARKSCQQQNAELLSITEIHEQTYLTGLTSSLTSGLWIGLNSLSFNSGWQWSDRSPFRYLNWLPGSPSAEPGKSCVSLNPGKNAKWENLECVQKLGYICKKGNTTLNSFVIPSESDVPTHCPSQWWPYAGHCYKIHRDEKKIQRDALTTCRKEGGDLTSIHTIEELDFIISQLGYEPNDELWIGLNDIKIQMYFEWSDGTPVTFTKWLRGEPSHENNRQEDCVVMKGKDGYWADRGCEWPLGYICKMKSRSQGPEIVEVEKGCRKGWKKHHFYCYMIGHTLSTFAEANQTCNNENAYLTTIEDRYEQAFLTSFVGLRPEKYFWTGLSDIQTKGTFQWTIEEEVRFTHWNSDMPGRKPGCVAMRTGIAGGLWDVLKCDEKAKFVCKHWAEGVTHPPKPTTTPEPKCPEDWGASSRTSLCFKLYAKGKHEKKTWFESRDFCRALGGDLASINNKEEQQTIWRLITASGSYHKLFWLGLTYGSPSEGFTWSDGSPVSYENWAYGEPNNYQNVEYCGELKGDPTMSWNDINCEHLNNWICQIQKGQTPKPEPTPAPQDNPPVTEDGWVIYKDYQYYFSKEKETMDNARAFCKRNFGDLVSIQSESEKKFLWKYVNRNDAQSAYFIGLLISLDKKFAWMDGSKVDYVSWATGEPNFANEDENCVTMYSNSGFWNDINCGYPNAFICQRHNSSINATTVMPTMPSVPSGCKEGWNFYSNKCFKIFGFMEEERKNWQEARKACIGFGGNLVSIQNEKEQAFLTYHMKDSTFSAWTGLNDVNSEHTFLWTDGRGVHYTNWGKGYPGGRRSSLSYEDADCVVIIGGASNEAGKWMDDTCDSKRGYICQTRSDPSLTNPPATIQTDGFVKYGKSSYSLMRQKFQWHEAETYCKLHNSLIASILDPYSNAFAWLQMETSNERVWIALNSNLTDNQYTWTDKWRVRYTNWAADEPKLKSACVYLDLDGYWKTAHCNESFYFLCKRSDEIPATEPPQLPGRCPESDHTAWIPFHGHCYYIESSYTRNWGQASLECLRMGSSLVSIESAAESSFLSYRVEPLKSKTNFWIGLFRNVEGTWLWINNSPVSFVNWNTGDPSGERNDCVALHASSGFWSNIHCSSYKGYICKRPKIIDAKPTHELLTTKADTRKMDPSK

[5] = tested on: M1- and M2-polarized BMDMs; assay: Phagocytosis, autophagy, apoptosis and NF-kB by electron microscopy and immunofluorescence in BMDMs; format: cell-based, murine

## KARKAAKRAF [RP-426]
CD206 [1]
  changed thermostability of CD206 compared to vehicle control: but not with RP-426
CD206 [2]
  changed thermostability of CD206 compared to vehicle control: but not with RP-426
[3]
  calculated potency (IC50), cell viability of murine M2 macrophages: did not show any activity
[4]
  calculated potency (IC50), cell viability of human M2 macrophages: did not show any activity
Human CD206
  binding affinity to CD206 relative to RP-182: about ten times lower
[5]
  induction of phagosomes / phagocytosis: did not induce phagocytosis
